Article PMC10529913
These are yes or no findings as the source states them, for the method shown. In cells and extracts the contact can be indirect. Some binding calls cover weakened binding; strength is not graded here.

Chains of the proteins cited; added tags and fusions are not shown.
UniProt P34881: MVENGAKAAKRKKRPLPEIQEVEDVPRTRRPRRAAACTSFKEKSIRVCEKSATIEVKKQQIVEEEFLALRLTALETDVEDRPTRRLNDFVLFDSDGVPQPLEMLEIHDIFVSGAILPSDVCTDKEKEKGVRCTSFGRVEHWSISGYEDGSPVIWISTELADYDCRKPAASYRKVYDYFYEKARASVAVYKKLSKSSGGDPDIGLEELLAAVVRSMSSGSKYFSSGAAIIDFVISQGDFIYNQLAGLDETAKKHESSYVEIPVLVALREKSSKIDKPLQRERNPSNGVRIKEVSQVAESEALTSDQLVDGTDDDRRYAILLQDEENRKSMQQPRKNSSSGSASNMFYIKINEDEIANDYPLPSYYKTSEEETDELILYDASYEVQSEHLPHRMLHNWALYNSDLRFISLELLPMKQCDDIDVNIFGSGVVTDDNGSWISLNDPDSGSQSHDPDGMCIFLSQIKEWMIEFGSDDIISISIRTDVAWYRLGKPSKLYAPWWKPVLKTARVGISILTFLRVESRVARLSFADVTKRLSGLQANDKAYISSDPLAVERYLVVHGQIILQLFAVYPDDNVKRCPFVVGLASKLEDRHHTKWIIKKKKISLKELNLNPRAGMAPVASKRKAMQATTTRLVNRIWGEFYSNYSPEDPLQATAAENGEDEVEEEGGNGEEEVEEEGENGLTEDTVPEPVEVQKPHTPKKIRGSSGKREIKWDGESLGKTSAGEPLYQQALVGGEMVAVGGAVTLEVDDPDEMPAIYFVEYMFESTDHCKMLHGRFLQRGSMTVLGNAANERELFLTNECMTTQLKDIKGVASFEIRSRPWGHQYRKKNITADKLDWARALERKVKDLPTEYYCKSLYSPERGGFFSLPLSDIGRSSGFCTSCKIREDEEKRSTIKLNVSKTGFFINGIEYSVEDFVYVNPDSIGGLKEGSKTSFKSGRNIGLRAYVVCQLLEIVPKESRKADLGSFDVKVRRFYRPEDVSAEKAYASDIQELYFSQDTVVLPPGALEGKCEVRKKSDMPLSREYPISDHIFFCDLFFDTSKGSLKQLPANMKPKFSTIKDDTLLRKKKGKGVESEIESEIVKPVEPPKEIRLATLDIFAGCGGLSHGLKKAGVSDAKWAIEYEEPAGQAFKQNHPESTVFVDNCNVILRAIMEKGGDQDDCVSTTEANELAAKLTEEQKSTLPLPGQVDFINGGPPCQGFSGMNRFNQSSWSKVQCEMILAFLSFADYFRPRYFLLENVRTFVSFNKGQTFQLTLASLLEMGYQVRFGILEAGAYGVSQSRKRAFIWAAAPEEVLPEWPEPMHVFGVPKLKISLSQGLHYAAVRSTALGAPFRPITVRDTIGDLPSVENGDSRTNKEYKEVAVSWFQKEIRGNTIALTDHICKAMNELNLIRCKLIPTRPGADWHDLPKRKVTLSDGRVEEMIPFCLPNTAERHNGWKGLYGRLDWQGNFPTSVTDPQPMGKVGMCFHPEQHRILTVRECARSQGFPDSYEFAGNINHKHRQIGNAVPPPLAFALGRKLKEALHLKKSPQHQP

Target: DDM1 fused with N-terminal YFP (YFPN) (Arabidopsis) (UniProt Q9XFH4)
Assay: split reporter; bimolecular fluorescence complementation, transient expression of split YFP (text: GFP) fusion proteins in Arabidopsis leaves; signal in the nucleus

In the case of “MET1 with C-terminal YFP (YFPC) (from UniProt P34881 1-1534) (enzyme)”, the binding is reported as “binds”.
